Source: US20250270343A1
No constants are given. Whether binding was seen depends on the method and setting. Some entries that bind do so weakly or less than the wild type.

Protein sequences, listed by entry. Tags and fused reporters are not part of them. Lines headed by an entry give the natural chain unless they say otherwise; changes in a name come on top. Residues count along the entry.
UniProt Q99P91, residues 23-502: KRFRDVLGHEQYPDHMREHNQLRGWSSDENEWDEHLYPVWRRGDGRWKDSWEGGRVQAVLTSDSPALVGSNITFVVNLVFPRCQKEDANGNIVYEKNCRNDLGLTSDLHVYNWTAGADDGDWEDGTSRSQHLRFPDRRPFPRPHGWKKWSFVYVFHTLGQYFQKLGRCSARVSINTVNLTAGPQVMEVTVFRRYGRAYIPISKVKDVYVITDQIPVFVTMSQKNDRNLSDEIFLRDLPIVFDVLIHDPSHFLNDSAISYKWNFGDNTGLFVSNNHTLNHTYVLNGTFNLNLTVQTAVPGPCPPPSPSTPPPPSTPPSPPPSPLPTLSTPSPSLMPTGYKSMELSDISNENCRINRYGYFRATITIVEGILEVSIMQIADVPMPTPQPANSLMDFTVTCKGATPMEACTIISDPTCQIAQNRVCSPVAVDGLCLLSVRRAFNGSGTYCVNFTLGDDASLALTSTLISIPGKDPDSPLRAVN
UniProt Q14956, residues 23-498: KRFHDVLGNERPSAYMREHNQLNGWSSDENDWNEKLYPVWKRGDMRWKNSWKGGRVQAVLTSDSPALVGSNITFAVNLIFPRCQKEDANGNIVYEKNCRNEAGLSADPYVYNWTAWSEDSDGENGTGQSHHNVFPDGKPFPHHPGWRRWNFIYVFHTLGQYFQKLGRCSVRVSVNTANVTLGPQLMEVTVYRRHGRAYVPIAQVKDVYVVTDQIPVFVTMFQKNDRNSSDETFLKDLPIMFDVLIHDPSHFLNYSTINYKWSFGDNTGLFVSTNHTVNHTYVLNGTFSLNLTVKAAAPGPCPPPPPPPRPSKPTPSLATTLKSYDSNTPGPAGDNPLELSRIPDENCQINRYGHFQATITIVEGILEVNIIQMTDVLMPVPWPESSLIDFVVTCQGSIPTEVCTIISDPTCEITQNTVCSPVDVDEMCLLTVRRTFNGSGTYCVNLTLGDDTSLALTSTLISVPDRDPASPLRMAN
UniProt P01636: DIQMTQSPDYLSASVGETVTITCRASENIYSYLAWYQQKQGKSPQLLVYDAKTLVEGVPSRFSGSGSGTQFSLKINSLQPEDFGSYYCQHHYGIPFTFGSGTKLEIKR

Legend:
[1] = target: soluble mouse GPNMB-Fc polypeptide (Fc of human IgG1 or mouse IgG2A, not specified for the assay) (mouse) (UniProt Q99P91); assay: FACS ligand binding assay: 2 ug/mL moGPNMB-Fc pre-complexed with rising Fab2, then SVEC4-10 cells; blocked ligand: unidentified ligand(s) on SVEC4-10 cells; bound GPNMB-Fc detected with anti-human IgG1 secondary
[2] = target: soluble mouse GPNMB-Fc polypeptide (Fc of human IgG1 or mouse IgG2A, not specified for the assay) (mouse) (UniProt Q99P91); assay: FACS ligand binding assay: 2 ug/mL moGPNMB-Fc pre-complexed with rising Fab2, then SVEC4-10 cells; ligand side: unidentified ligand(s) on SVEC4-10 cells; bound GPNMB-Fc detected with anti-human IgG1 secondary
[3] = target: soluble human GPNMB-Fc polypeptide (human) (UniProt Q14956); assay: FACS ligand binding assay: 2 ug/mL huGPNMB-Fc pre-complexed with rising Fab2, then SVEC4-10 cells; ligand side: unidentified ligand(s) on SVEC4-10 cells; bound GPNMB-Fc detected with anti-human IgG1 secondary

| binding [1] | binding [2] | binding [3] | Substance |
| --- | --- | --- | --- |
| binds |  |  | recombinant Fab2 fragment of anti-GPNMB antibody GPN-52 (from UniProt P01655 1-112) |
|  | binds | binds | recombinant Fab2 fragment of anti-GPNMB antibody GPN-38 (from UniProt P01636 1-107) |
| binds |  | binds | recombinant Fab2 fragment of anti-GPNMB antibody GPN-61 (from UniProt P01655 1-112) |
